In paper doi:10.1101/2021.03.29.437469 one finds binding data, which are given here for one molecule.

Protein sequences, listed by entry. Tags and fused reporters are not part of them.
UniProt P24783: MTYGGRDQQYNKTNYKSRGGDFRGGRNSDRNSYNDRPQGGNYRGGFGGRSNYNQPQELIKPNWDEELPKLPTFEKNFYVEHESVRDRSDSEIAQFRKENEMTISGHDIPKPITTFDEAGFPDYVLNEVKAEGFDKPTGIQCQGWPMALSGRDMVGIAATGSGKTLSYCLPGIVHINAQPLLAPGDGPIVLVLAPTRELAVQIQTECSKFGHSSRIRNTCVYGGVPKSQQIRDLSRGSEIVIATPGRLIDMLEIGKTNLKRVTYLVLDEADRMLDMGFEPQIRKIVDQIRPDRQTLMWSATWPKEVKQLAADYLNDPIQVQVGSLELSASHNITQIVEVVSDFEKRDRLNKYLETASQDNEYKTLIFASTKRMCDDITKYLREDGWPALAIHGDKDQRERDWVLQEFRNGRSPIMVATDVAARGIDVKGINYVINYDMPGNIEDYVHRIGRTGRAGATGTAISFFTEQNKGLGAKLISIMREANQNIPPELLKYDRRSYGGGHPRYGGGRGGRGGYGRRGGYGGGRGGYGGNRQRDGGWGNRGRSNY

What all share (test): co-IP
For assay [1], the target named is T1, C-terminally TAP-tagged Tif4631p (S. cerevisiae) (UniProt P39935).
T1 sequence: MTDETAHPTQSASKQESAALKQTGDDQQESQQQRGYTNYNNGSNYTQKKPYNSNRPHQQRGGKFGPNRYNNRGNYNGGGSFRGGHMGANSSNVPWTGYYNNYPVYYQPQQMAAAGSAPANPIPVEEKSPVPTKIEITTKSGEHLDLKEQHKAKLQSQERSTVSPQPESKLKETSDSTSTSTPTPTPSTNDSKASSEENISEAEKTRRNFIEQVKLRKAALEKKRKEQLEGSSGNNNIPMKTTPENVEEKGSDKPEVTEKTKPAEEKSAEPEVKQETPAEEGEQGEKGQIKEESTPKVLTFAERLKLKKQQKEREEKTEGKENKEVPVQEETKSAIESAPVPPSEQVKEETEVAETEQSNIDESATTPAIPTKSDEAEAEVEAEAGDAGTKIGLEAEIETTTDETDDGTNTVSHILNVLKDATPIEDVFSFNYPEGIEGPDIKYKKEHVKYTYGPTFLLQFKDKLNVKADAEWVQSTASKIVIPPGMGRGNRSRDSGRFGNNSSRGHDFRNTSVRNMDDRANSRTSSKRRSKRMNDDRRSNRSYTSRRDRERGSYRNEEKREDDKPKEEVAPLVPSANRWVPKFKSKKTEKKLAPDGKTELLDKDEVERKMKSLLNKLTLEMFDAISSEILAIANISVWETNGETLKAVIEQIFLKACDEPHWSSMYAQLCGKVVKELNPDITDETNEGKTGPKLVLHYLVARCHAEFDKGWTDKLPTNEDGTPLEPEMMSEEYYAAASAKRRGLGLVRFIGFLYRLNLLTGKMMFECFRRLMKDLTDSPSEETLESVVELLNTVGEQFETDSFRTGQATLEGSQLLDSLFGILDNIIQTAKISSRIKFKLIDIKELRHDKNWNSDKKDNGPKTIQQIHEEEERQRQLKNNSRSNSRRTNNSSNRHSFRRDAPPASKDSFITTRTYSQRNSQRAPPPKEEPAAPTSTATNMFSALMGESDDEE

The target in assay [2] is C-terminally FLAG-tagged Dbp2p (S. cerevisiae) (UniProt P24783).
For assay [3], the target named is T2, C-terminally TAP-tagged Cbc1p (S. cerevisiae) (UniProt P34160).
T2 sequence: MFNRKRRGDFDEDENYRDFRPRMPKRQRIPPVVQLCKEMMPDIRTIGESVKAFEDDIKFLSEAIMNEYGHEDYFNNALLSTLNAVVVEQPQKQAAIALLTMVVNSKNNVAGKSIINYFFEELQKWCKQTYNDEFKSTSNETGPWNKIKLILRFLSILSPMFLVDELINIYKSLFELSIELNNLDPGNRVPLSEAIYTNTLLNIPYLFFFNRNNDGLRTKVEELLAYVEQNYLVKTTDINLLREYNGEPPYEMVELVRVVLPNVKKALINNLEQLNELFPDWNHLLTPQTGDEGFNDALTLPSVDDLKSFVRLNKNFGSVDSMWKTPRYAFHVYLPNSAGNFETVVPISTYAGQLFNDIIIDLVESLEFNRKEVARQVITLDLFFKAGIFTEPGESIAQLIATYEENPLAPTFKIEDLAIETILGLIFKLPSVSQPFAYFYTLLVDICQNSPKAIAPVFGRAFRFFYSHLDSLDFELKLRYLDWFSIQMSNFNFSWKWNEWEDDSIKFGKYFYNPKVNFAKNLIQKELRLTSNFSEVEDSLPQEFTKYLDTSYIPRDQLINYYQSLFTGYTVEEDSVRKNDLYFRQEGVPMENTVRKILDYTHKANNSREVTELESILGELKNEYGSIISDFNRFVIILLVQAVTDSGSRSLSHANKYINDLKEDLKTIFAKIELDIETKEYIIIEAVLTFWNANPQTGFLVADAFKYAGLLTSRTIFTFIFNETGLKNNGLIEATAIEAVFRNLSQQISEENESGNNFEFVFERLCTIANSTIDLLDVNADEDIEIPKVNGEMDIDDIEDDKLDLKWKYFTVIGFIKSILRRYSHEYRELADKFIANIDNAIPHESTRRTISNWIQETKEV

Assay [4] has as its target T3, TAP-tagged Tif4631p-ΔRRM1 (S. cerevisiae) (UniProt P39935).
T3 sequence: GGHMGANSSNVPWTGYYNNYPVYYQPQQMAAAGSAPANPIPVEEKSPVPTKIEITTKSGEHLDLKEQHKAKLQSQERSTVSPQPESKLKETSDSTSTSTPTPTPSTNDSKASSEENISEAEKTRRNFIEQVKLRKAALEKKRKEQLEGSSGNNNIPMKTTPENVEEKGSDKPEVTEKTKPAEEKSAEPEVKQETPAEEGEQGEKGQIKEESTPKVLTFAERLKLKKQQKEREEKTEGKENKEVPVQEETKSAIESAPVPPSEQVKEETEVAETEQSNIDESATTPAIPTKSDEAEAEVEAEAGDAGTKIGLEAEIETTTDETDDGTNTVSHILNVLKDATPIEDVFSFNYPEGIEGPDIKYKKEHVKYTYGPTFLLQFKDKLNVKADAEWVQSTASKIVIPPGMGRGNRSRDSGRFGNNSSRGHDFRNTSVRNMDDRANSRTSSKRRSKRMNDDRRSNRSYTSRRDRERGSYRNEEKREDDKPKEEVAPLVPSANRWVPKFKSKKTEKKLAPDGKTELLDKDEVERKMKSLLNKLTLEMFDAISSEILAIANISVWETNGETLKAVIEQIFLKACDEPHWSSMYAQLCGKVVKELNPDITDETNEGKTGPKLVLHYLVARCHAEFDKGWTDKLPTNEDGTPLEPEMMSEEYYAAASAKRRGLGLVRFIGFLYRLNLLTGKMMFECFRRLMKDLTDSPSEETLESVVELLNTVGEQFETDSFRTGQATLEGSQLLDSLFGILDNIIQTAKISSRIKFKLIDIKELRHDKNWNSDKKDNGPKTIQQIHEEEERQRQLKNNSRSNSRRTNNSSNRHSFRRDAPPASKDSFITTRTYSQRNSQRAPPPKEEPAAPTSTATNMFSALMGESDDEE

In a further assay the target is T4, Upf3p-HA (S. cerevisiae) (UniProt P48412).
T4 sequence: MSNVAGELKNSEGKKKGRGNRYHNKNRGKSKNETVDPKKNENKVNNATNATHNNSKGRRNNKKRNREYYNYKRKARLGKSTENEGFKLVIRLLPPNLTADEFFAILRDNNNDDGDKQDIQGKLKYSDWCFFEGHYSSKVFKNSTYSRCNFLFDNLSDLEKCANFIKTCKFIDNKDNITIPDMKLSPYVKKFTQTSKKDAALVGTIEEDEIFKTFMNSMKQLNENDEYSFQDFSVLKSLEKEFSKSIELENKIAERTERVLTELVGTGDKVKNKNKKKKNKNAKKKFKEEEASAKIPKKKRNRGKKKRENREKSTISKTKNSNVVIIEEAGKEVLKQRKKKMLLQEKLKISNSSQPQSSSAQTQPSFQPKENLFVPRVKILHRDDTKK

No constants are given. Whether binding was seen depends on the method and setting. Binding seen in cells or lysates may run through a third protein. Some entries that bind do so weakly or less than the wild type. For some assays here: Sequences can lack the tags named with a protein.

B1: Rrp4p (protein, UniProt P38792 1-359)
chain: MSEVITITKRNGAFQNSSNLSYNNTGISDDENDEEDIYMHDVNSASKSESDSQIVTPGELVTDDPIWMRGHGTYFLDNMTYSSVAGTVSRVNRLLSVIPLKGRYAPETGDHVVGRIAEVGNKRWKVDIGGKQHAVLMLGSVNLPGGILRRKSESDELQMRSFLKEGDLLNAEVQSLFQDGSASLHTRSLKYGKLRNGMFCQVPSSLIVRAKNHTHNLPGNITVVLGVNGYIWLRKTSQMDLARDTPSANNSSSIKSTGPTGAVSLNPSITRLEEESSWQIYSDENDPSISNNIRQAICRYANVIKALAFCEIGITQQRIVSAYEASMVYSNVGELIEKNVMESIGSDILTAEKMRGNGN
On to B1, for which the binding entry in assay [1] was “binds”; in assay [2], “binds”; in assay [3] it was “binds”; in assay [4], “no binding”; with Upf3p-HA (S. cerevisiae), “binds”.
